Results deposited as PubChem BioAssay AID1259405 (NCATS, 2018)
The whole screen tested about 50,000 reagents; below is a part drawn at random. Over the whole deposit, about 4,000 (8%) got an active call. 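Mouse siRNA library applied to hamster cells; one well for each siRNA.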 The numbers tell different reagents against one gene apart.

- Aim: 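Knock-downs that lift recombinant protein yield in hamster ovary cells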 (primary screen)
- System: Chinese hamster CHO-K1 ovary cells with stable secreted eGFP expression
- Reagent: single siRNA against mouse genes, 0.8 pmol siRNA per well (2 µl of 400 nM stock)
- Time to read-out: 3 days
- Detection: 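Percent of the per-plate non-targeting control median for intracellular GFP per well by laser scanning cytometry and for cell viability by ATP luminescence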
- Direction: GFP, % of control: higher = more GFP per well, higher productivity; viability (ATP), % of control: higher = more viable cells (more ATP)
- Active means: 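Called active when intracellular GFP, relative to negative control, is at or above 120%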

For Arhgef4 #1, what was measured?
GFP, % of control: 64.1; viability (ATP), % of control: 43.1; Call: inactive

With Arhgef4 #2, what was measured?
GFP, % of control: 61.5; viability (ATP), % of control: 70.2; Call: inactive

For Arhgef4 #3, what was measured?
GFP, % of control: 91.6; viability (ATP), % of control: 68.4; Call: inactive

For Arhgef4 #4, what was measured?
GFP, % of control: 134; viability (ATP), % of control: 147; Call: active

For Arhgef4 #5, what was measured?
GFP, % of control: 114; viability (ATP), % of control: 125; Call: inactive

What did the screen give for Arhgef4 #6?
GFP, % of control: 102; viability (ATP), % of control: 119; Call: inactive

With Primpol #1, what was measured?
GFP, % of control: 54.6; viability (ATP), % of control: 54.9; Call: inactive

For Primpol #2, what was measured?
GFP, % of control: 90.9; viability (ATP), % of control: 81; Call: inactive

With Primpol #3, what was measured?
GFP, % of control: 129; viability (ATP), % of control: 58.9; Call: active

Copied from the list:
Value for Primpol #3 in “GFP, % of control”: 129
Result for Arhgef4 #2 in “viability (ATP), % of control”: 70.2
Under “Call”, Arhgef4 #5 has inactive

The list goes on:
With Tet2 #1, what does the deposit list?
GFP, % of control: 65.1; viability (ATP), % of control: 64.3; Call: inactive

What is on record for Tet2 #2?
GFP, % of control: 76.2; viability (ATP), % of control: 63.5; Call: inactive

For Tet2 #3, how do the results read?
GFP, % of control: 73.5; viability (ATP), % of control: 74.9; Call: inactive

How did the screen score Rpl28 #1?
GFP, % of control: 58.7; viability (ATP), % of control: 62; Call: inactive

With Rpl28 #2, what was measured?
GFP, % of control: 89.6; viability (ATP), % of control: 70.5; Call: inactive

For Rpl28 #3, what was measured?
GFP, % of control: 27.8; viability (ATP), % of control: 25.5; Call: inactive

How did the screen score Gng8 #1?
GFP, % of control: 79.8; viability (ATP), % of control: 81.8; Call: inactive

For Gng8 #2, what was measured?
GFP, % of control: 187; viability (ATP), % of control: 101; Call: active

For Gng8 #3, what does the deposit list?
GFP, % of control: 114; viability (ATP), % of control: 53.8; Call: inactive
